Assay [1] addresses T1, Human OX40 protein (hOX40-His) (human, UniProt P43489 29-214).
T1 construct: Soluble analyte in the SPR assay; also called His-tagged human OX40; not shown: His tag
T1 sequence: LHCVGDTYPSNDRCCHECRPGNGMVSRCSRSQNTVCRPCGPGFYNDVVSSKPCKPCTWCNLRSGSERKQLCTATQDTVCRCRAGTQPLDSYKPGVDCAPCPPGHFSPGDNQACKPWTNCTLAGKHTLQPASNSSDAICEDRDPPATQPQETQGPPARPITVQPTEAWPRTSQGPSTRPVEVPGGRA
The experiment in a line: SPR (Biacore T200); antibody captured on a Protein A chip, hOX40-His injected as analyte. (SPR reads the build-up and loss of mass on a sensor chip optically.)

Assay [2] has as its target T2, rhesus macaque OX40 on transfected CHO cells (rhesus macaque).
T2 sequence: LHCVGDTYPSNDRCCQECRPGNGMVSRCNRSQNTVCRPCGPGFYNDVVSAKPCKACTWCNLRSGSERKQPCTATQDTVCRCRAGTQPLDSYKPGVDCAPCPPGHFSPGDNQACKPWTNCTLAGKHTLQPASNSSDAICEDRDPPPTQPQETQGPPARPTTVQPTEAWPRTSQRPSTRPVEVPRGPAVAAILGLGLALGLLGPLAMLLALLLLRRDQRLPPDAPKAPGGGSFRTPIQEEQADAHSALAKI
Kind of assay: flow cytometry on CHO cells transfected with rhesus macaque OX40; antibody at 1 ug/ml. In general terms: A flow cytometer gives signals particle by particle.

These are yes or no findings as the source states them, for the method shown. Some entries that bind do so weakly or less than the wild type. For some assays here: Tags and fused reporters may be left off the sequences shown.

B1: 9H3-mHvKv-IgG1 (antibody, V domains shown)
VH: QVQLKQSGPGLVQPSQSLSITCTVSGFSLTSYGVLWVRQPPGKGLEWLGVIWSGGSTDYNAAFISRLSISKDNSKSQVFFKMNSLQADDTAIYYCAREEFGYWGQGTLVTVSA
VL: DIQMTQTTSSLSASLGDRVTISCRASQDINNYLNWYQQKPDGTVKLLIYYTSRLHSGVPSRFSGSGSGTDYSLTISNLEQEDIATYFCQQTNTLPWTFGGGTKLEIK
notes: Chimeric: mouse 9H3 variable domains with human IgG1 constant domains (CL, CH1, CH2, CH3); also called 9H3 chimeric antibody; chimeric anti-hOX40 antibody
Take B1: the binding entry in assay [1] is reported as “binds”.

B2: mouse anti-hOX40 antibody 07-9H3 (antibody, V domains shown)
VH: B1 VH
VL: B1 VL
notes: Mouse IgG purified from ascites fluid
As for B2, the binding entry in assay [2] was “binds”.

The record behind these values is patent publication US20210206866A1 (EUCURE BEIJING BIOPHARMA, published 2021).
